Results on 53 molecules are retold here after PubChem BioAssay AID504466 (National Center for Advancing Translational Sciences (NCATS), 2011).

Out of some 330,000 compounds screened, about 4,200 (1.3%) were called active. Another 6% or so got no clear call; they are omitted. The call rests on the fitted dose curve; in most records, active means well fitted activation curve with a large enough effect; inconclusive means small, poorly fitted or top-dose-only effect; inactive means no such curve, though single readings can be large or run the other way. This is a selection; strong and weak results do not stand in their true shares. Where no call is shown, the source filed none.
Potency means the concentration at half of the fitted maximal effect.

The assay is described as follows: qHTS screen for small molecules that induce genotoxicity in human embryonic kidney (HEK293T) cells expressing luciferase-tagged ELG1. Further: nearly all actives have a fitted effect of over 60% in size. On activity change, positive = activation: % of control where 0% means no effect. Particulars: HEK293T ELG1-luciferase reporter, luminescence, 16 h; activity change, positive = activation: at 46 µM (top of the series). An excerpt: NIH Molecular Libraries Probe Production Network [MLPCN] NIH Chemical Genomics Center [NCGC] MLPCN Grant: 1 R03 MH092164-01 Assay Provider: Kyungjae Myung, NHGRI, NIH Keywords: MLPCN, qHTS, NCGC, genotoxicity, cancer Assay Overview: Cancer cells divide rapidly compared to normal cells in the body. During cell division, cancer cells need to duplicate their genome by DNA replication. The failure of genome duplication leads to cancer cells' death. Therefore, inhibitors of DNA replication could specifically kill cancer cells. Based on this concept, many chemotherapeutic agents were developed and have been used to treat cancer patients. However, there are a limited number of agents available in the clinical setting, and some of those that do exist have low efficacy and severe side effects. Therefore, if we can find the compounds that effectively block DNA replication either by directly damaging DNA or by inhibiting other cellular mechanisms, the options for cancer treatment will be broadened. With this in mind, we developed a quantitative high-throughput ELG1-luciferase reporter gene assay. Since the level of human ELG1 protein is enhanced in response to genetic stresses, increases in luciferase activity can be used to identify compounds that cause genetic stress.
Assay Protocol Summary: For genotoxicity screening, 2,000 cells in 5 uL/well were dispensed into white, solid-bottom 1536-well plates using a solenoid-based dispenser. Following transfer of 23 nL compound or DMSO vehicle by a pin tool, the plates were incubated 16 hr at 37 °C and 5% CO2. 5 ul ONE-Glo (Promega) was then added to each plate and following a 30 min incubation at room temperature, luciferase activity was quantified on a ViewLux CCD-based plate reader.
(In general: In qHTS, concentration-response curves come from the screen itself.)
For the molecule `C(#Cc1ccccc1)CN1CCOCC1`, the activity change, positive = activation was -16.3%. Turning to `Cc1ncc(CO)c2c1Oc1nc(-c3ccccc3)nc(SCC(=O)N(C)c3ccccc3)c1C2`, the activity change, positive = activation came to 6.31%.

As to `N#CC1=C(N)SC(N)=C(C#N)C1Cc1ccccc1`, the activity change, positive = activation is -4.35%. In the case of `CCC(=O)N1CCc2cc(Br)cc(S(=O)(=O)N3CCC(C(=O)NCCCOC(C)C)CC3)c21`, the “activity change, positive = activation” value is inactive: -32.8%. The same measure, in the same setting: for `O=C1C[C@H]2[C@H](CO)[C@@H](OC(=O)c3ccc(-c4ccccc4)cc3)C[C@H]2O1` the value was inactive: 16.2%. As for `N#C/C(Cn1c[n+](NC(=O)Nc2ccccc2)cn1)=N/O`, the activity change, positive = activation amounted to 2.97%.

As for `O=[N+]([O-])c1ccccc1NCc1ccc(Cl)cc1`, the activity change, positive = activation came out at 16.8%. On the same count and under the same terms, with `CCc1ccc(NC(=O)N(CCN2CCOCC2)Cc2ccc3c(c2)CCCN3CC)cc1` the figure was -15.7%. Regarding `Cc1ccc(-c2cc3nc(C)cc(NCc4ccco4)n3n2)cc1`, the Potency is active: 4.11 µM. On to `Oc1ccc2ccc3[nH]cnc3c2c1`, for which the activity change, positive = activation was -7.39%.

`COCCNC(=O)c1ccc(S(=O)(=O)N2CCCc3ccccc32)cc1`: the activity change, positive = activation worked out at 7.56%.

Consider `CCOc1nc(NCCO)nc(Nc2cc(Cl)ccc2OC)n1`, for which the activity change, positive = activation was determined as 32.7%. Take `O=C(N/N=C/c1cccs1)c1ccc2c(c1)OCO2`: the Potency was active: 9.2 µM. Regarding `O=C(COC(=O)CCc1nc2ccccc2c(=O)[nH]1)NC1CCS(=O)(=O)C1` (stereo not drawn), the activity change, positive = activation came to 22.3%. Turning to `COc1ccc(NS(=O)(=O)c2ccc(NC(C)=O)cc2)cc1OC`, the activity change, positive = activation was 29.1%.

Regarding `O=C(Nc1cccnc1)c1cc2cc(Br)ccc2o1`, the Potency was active: 5.17 µM. Turning to `O=C(C1CCC(Cn2c(=S)[nH]c3ccccc3c2=O)CC1)N1CCN(c2ccccn2)CC1` (stereo not drawn), the “activity change, positive = activation” value is inactive: -20.1%.

Take `COc1cc2c(cc1OC)C(C)N(C(=O)c1cc3c(C)cc(C)cc3[nH]1)CC2` (stereo not drawn): the “activity change, positive = activation” value was inactive: -22.4%.

On to `Cc1ccc(NC(=O)COC(=O)c2ccc([N+](=O)[O-])o2)cc1S(=O)(=O)N1CCCCCC1`, for which the activity change, positive = activation was 3.15%. As to `COc1ccc2c(c1)c(C(C)=O)c(C)n2-c1ccc(C(C)=O)cc1`, the “activity change, positive = activation” value is inactive: -21.1%. The same measure, in the same setting: for `CCOc1ccc(CN(C)c2nc(-c3cccnc3)nc3ccccc23)cc1OC` the value was inactive: -35.2%. On to `O=C(c1ccc2oc(CCCc3ccccc3)nc2c1)N1CCCC1`, for which the Potency is active: 9.2 µM. As for `CCOc1ccc(-n2ccnc(SCC(=O)Nc3cccc(OC)c3)c2=O)cc1`, the activity change, positive = activation worked out at 38.4%. On the same count and under the same terms, for `O=C(CCS(=O)(=O)c1ccc(Cl)cc1)Nc1nc(-c2cccnc2)cs1` the value was 59.4%; for `CCCCC(=O)Nc1ccc2oc(-c3cccnc3)nc2c1`, 29.3%; for `O=C(Nc1c2c(nn1-c1ccccc1)CS(=O)C2)c1ccc(S(=O)(=O)N2CCOCC2)cc1` (stereo not drawn), 15.9%. Regarding `N#CC1=C(N)N2C(=C(C#N)C13CCCCC3)SC1CCCCC12O` (stereo not drawn), the activity change, positive = activation was -21.3%.

For the molecule `O=C1C2C3C=CC(C3)C2C(=O)N1c1ccc(-c2nc3ccccc3o2)cc1` (stereo not drawn), the Potency was active: 1.84 µM. On to `COc1ccc(C(=O)n2nnc3ccccc32)cc1Br`, for which the activity change, positive = activation stood at 2.62%.

As to `COC(=O)c1[nH]c2ccccc2c1NC(=O)CN1CCN(c2cccc(OC)c2)C(C)C1` (stereo not drawn), the “activity change, positive = activation” value was inactive: -28%. Turning to `CCCCCCOC(=O)c1ccc(OC(=O)c2cccnc2)cc1`, the Potency was active: 18.4 µM.

As for `Cc1c(Cl)ccc2c1NC(=O)[C@]21N[C@@H](Cc2ccccc2)[C@H]2C(=O)N(c3ccc(F)cc3)C(=O)[C@H]21`, the activity change, positive = activation is -16.5%. On the same count and under the same terms, for `CCOC(=O)c1c(NC(=O)C2COc3ccccc3O2)sc(C(C)=O)c1C` (stereo not drawn) the value was 1.16%. Take `Cc1ccc(CC(=O)Nc2cccc(C)n2)cc1`: the Potency was active: 20.6 µM. Take `CCc1cc(C(=O)N2CCN(C(=O)c3ccco3)CC2)sc1C`: the activity change, positive = activation is 49.9%. `Cc1ccc(-c2nc(-c3ccncc3)no2)cc1`: the Potency is active: 3.66 µM.

For `CCC(C)(C(=O)NC1CCCCC1)N(Cc1cccs1)C(=O)c1ccccn1` (stereo not drawn), the activity change, positive = activation is -9.07%. As for `CCCOC(=S)NC(=O)c1sc2ccccc2c1Cl`, the activity change, positive = activation was -2.88%. In the case of `O=C(COc1ccc(Cl)cc1Cl)NC1CCSC1=O` (stereo not drawn), the Potency was active: 16.4 µM. With `CCOC(=O)c1ccc(NC(=O)N2CCCCCC2)cc1`, the Potency is active: 5.8 µM. Still for that read-out and setting: for `C/C(=N\NC(=O)c1ccc(F)cc1)c1ccccn1` the value was active: 5.17 µM. For `COC(=O)c1c(C)n(-c2ccc(OC)cc2)c2ccc(O)cc12`, the “activity change, positive = activation” value was inactive: -25.3%. For `O=C(Nc1cccc(-c2ccc(N3CCCCC3)nn2)c1)c1ccc(Br)o1`, the Potency was active: 2.31 µM. `COc1ccc(-c2nsc3c(N4CCCC4)ncnc23)cc1`: the activity change, positive = activation turned out to be 42.2%. Still for that read-out and setting: for `O=C(N/N=C/c1ccccn1)c1ccc(S(=O)(=O)N2CCCCCC2)cc1` the value was 4.61%; for `CCC(C)(C(=O)NC1CCCCC1)N(CC1CCCO1)C(=O)Cc1cccs1` (stereo not drawn), -2.19%; for `Cc1cc(=O)oc(C)c1C(=O)NCc1c(F)cc(F)cc1F`, 23.6%. As to `COc1ccccc1C(c1c(N)n(C)c(=O)n(C)c1=O)C(C)[N+](=O)[O-]` (stereo not drawn), the activity change, positive = activation was 14.6%. Regarding `O=C(NCCO)c1cccc(Cl)c1`, the activity change, positive = activation came out at 14.1%. With `O=C(N/N=C/c1coc2ccc(Cl)cc2c1=O)c1ccc(O)cc1`, the “activity change, positive = activation” value is inactive: -20.4%. Take `O=C(Nc1nccs1)c1cc2c(s1)CCCCC2`: the activity change, positive = activation was -15.6%. The same measure, in the same setting: with `COc1cccc(/C=C/C(=O)Nc2ccccc2N2CCOCC2)c1` the figure was -10.3%. On the same count and under the same terms, with `CCOCCCNC(=O)c1ccc2c(c1)ncn2-c1ccc(CC)cc1` the figure was 3.69%.
